No constants are given. Whether binding was seen depends on the method and setting. Some results given as binding are weak or reduced against the parent protein; the word gives no strength. Where a sequence is shown, tags or fusion partners need not be part of it.
Biological target: CP190-BTB/POZ (BTB/POZ domain of CP190), His-tagged (Drosophila) (UniProt Q24478)
Assay: crystal structure; CP190-BTB/POZ; 0.8 M NaH2PO4, 0.8 M KH2PO4, 0.1 M Hepes pH 7.5; space group P3_(2)21; molecular replacement; both purified

- binding: binds
B1: CP190-BTB/POZ (BTB/POZ domain of CP190), His-tagged (domain or fragment, Drosophila)
chain: MGEVKSVKVDNWGVFFLQKLQNFFNKTDYCDLTLQFRDNSQLKVHRLVLSACTDYFNVLEQTCEIVDDALIMPNEFQADVVVPIVNFMYTGTLEFELKMYGKLLRTAKEMNMTVLLKLLEAHRRTMENVNRQQR
notes: N-terminal BTB/POZ domain of CP190, Drosophila; source: E. coli BL21 (DE3)-pLysS, purified
